Values quoted from earlier work as cited in patent US20220183969A1, “OCULAR INSERT CONTAINING A GLUCOCORTICOID” (Ocular Therapeutix, Inc., priority 2020, published 2022).

solubility in an aqueous medium (aqueous medium such as the tear fluid): less than 100 μg/mL | solubility in water (at 25° C.): approx. 89 mg/L
Compound: C[C@@H]1C[C@H]2[C@@H]3CCC4=CC(=O)C=C[C@]4(C)[C@@]3(F)[C@@H](O)C[C@]2(C)[C@@]1(O)C(=O)CO [Dexamethasone, 9-Fluor-11β,17,21-trihydroxy-16α-methyl-pregna-1,4-dien-3,20-dion]
